Experimental data published in PubChem BioAssay AID1347076 (National Center for Advancing Translational Sciences (NCATS), 2019).
About 13,000 (3.2%) of roughly 400,000 compounds were called active. This list was built around the results that the source calls inconclusive (neither active nor inactive); the mix of calls is not that of the screen. The call rests on the fitted dose curve; in most records, active means well fitted cell-killing curve with a large enough effect; inconclusive means small, poorly fitted or top-dose-only effect, or effect the other way; inactive means flat fitted curve, though single readings scatter. Potencies beside an inconclusive call are fits to weak or partial responses and may not hold up.
Potency means the concentration at half of the fitted maximal effect.

Assay: qHTS assay for MDR1-selective chemotherapeutics: Primary screen using the drug-selected MDR subline cells KB-V1; further: nearly all actives have a fitted effect of over 60% in size
Conditions: KB-V1 MDR cells viability, CellTiter-Glo, 72 h; series mostly up to 46.1 µM
Method in brief: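 Cytotoxicity via CellTiter-Glo luminescence after 72 h compound exposure at 37 degrees C. Cells: drug-selected KB-V1 line, DMEM phenol-red free plus 10% FBS. Compounds tested at multiple concentrations; normalized data fitted to concentration-effect curves.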
With `CCOC(=O)c1cnc(Nc2nc3ccccc3o2)nc1CN1CCN(C)CC1` the Potency was active: 13 µM.
With `Cc1ccc(S(=O)(=O)N2CC(C(=O)O)Oc3ccccc32)cc1` (configuration not stated) the Potency was inconclusive: 14.6 µM [rising, partial curve, poor fit].
For `CO/N=C(/CS(=O)c1ccc(Br)cc1)c1ccc(OC)cc1` (configuration not stated), the Potency was inconclusive: 14.6 µM [rising, partial curve].
In the case of `CCc1ccccc1N(CC)C(=O)c1c(C)oc2ncn(C)c(=O)c12`, the Potency is reported as “inactive”.
For `O=C(C[N+]1(CCO)CCOCC1)c1cccc2ccccc12`, the Potency was inconclusive: 0.0058 µM [rising, full curve, poor fit].
With `CCc1ccc(NC(=O)CSc2nnc(-c3cccs3)n2CC)cc1` the Potency was inconclusive: 6.51 µM [cytotoxic, partial curve].
In the case of `CCc1nc2c(OCc3cccc(Cl)c3)cccn2c1N(C)C(=O)Nc1ccccc1OC`, the Potency is reported as “inactive”.
In the case of `CCCn1nc(C(=O)Nc2cc(S(=O)(=O)Nc3ccc(OC)cc3)ccc2O)c2ccccc2c1=O`, the Potency is reported as inconclusive: 2.91 µM [rising, partial curve, poor fit].
In the case of `COCCNC(=O)C1CCCN(C(=O)c2ccc(F)c(C)c2)CC1` (configuration not stated), the Potency is reported as inconclusive: 3.66 µM [cytotoxic, partial curve, poor fit].
With `CCOC(=O)c1c(O)c(Cl)c(C)[nH]c1=O` the Potency was inconclusive: 14.6 µM [rising, single point].
For `Nc1ccc(C(=O)N2CCN(S(=O)(=O)c3ccc(Br)cc3)CC2)cc1[N+](=O)[O-]`, the Potency was inconclusive: 6.51 µM [cytotoxic, partial curve].
For `COc1ccc(NC(=O)C2CCN(S(=O)(=O)c3ccc4c(c3)CCCC(=O)N4)CC2)cc1OC`, the Potency was “inactive”.
For `Cc1ccc(Cc2c(-c3ccc(Cl)cc3)nc3c(C)cc(Br)cn23)cc1`, the Potency was “inactive”.
For `O=C(CCn1nnnc1CN1CCOCC1)N1CCC(c2ccccc2F)C1` (configuration not stated), the Potency was inconclusive: 2.59 µM [cytotoxic, full curve, poor fit].
For `COc1ccccc1NC(=S)N1CCc2cc(OC)c(OC)cc2C1`, the Potency was inconclusive: 23.1 µM [cytotoxic, partial curve, poor fit].
For `CCC(=O)c1cn(CCOc2ccccc2OC)c2ccccc12`, the Potency was inconclusive: 7.31 µM [cytotoxic, partial curve, poor fit].
For `Cc1cccc(NC(=O)Cn2c(=O)n(C)c3ccccc32)c1`, the Potency was inconclusive: 23.1 µM [cytotoxic, single point].
For `Clc1ccc(-c2ccc(C=Nc3ccc(N4CCOCC4)cc3)o2)cc1`, the Potency was inconclusive: 29.1 µM [rising, single point].
For `CC(C)Sc1ccccc1C(=O)Nc1ccc2c(c1)n(C)c(=O)n2C`, the Potency was “inactive”.
With `COC(=O)CCC(=O)NC(=S)Nc1sc(C)c(C)c1C(N)=O` the Potency was active: 1.64 µM.
For `CCOC(=O)Cn1cc(/C=N/NC(=O)CC#N)c2ccccc21`, the Potency was “inactive”.
In the case of `Cc1csc(NC(=O)c2cc(C)nc3ccccc23)n1`, the Potency is reported as inconclusive: 18.4 µM [cytotoxic, single point].
For `Cc1ccc(/C=C(\C#N)c2nc(-c3ccc(-c4ccccc4)cc3)cs2)cc1`, the Potency was inconclusive: 25.9 µM [rising, single point].
In the case of `N#Cc1ccsc1NC(=O)CN(Cc1ccccc1)Cc1ccccc1`, the Potency is reported as active: 10.3 µM.
With `Cc1ccc(S(=O)(=O)C2(C(=O)Nc3ccc(Cl)c(C(F)(F)F)c3)CC2)cc1` the Potency was “inactive”.
With `Cn1c(Sc2nc3ccccc3n2C)nc2ccccc21` the Potency was inconclusive: 29.1 µM [cytotoxic, single point].
In the case of `CCOC(=O)c1cccc(NC(=O)CCS(=O)(=O)c2ccc3c(c2)CC(=O)N3C)c1`, the Potency is reported as inconclusive: 6.51 µM [rising, full curve].
For `CCOc1ccc(CCNC(=O)CCS(=O)(=O)c2ccc(Br)cc2)cc1OCC`, the Potency was inconclusive: 7.31 µM [cytotoxic, partial curve, poor fit].
For `CC1(C(=O)Nc2cccc3ccccc23)CCN1C(=O)Cc1ccc(Cl)cc1Cl` (configuration not stated), the Potency was inconclusive: 20.6 µM [cytotoxic, partial curve].
With `O=C(COc1ccc(/C=N/NC(=O)C(=O)N2CCCCCC2)cc1)Nc1ccccc1Cl` the Potency was active: 18.4 µM.
With `CCOC(=O)c1cc(-c2sc(NC(=O)c3ccccc3)nc2C)n(CCO)n1` the Potency was inconclusive: 10.3 µM [cytotoxic, single point].
In the case of `Cc1ccc(Nc2nc(C(=O)N3CCC(C(=O)NCc4ccccc4)CC3)cs2)cc1`, the Potency is reported as inconclusive: 14.6 µM [cytotoxic, partial curve, poor fit].
In the case of `COc1ccc(C(=O)COC(=O)c2cc([N+](=O)[O-])ccc2N2CCOCC2)c(OC)c1`, the Potency is reported as inconclusive: 23.1 µM [cytotoxic, single point].
For `COc1ccccc1OCCNC(=O)Cc1ccc(S(=O)(=O)N2CCOCC2)s1`, the Potency was inconclusive: 29.1 µM [cytotoxic, single point].
For `O=C(NC1CC1)c1ccc(C2SCC(=O)N2Cc2ccccc2)cc1` (configuration not stated), the Potency was “inactive”.
With `CCSC1(SCC)N=C(N)C2(C#N)C(c3ccccc3)NC(C)=CC12C#N` (configuration not stated) the Potency was inconclusive: 29.1 µM [rising, single point].
In the case of `Cc1ccc(S(=O)(=O)CC(=O)N(CCCN2CCOCC2)c2nc3c(F)cccc3s2)cc1`, the Potency is reported as “inactive”.
With `CC(C)CN(C(=O)CSc1nc2ccccc2[nH]1)C1CCS(=O)(=O)C1` (configuration not stated) the Potency was inconclusive: 23.1 µM [cytotoxic, single point].
For `COC(=O)c1ccc(Cl)cc1NC(=O)NCCc1c(C)nn(C)c1C`, the Potency was “inactive”.
In the case of `CC(C)(C)C1CCc2c(sc(NC(=O)Cn3nnc(-c4ccccc4Cl)n3)c2C#N)C1` (configuration not stated), the Potency is reported as “inactive”.
In the case of `Cc1cccc(N2CCN(C(=O)CCn3c(=S)[nH]c4cc5c(cc4c3=O)OCO5)CC2C)c1` (configuration not stated), the Potency is reported as active: 10.3 µM.
For `Cc1ccc(C(C(=O)NCc2ccco2)N(CC2CCCO2)C(=O)Cn2nnc3ccccc32)cc1` (configuration not stated), the Potency was inconclusive: 10.3 µM [cytotoxic, partial curve, poor fit].
With `CCc1nc(NCCCn2ccnc2)c2oc3ccccc3c2n1` the Potency was inconclusive: 29.1 µM [cytotoxic, single point].
With `COc1ccc(C(=O)COC(=O)c2cccs2)cc1` the Potency was inconclusive: 29.1 µM [rising, single point].
For `OCCNc1nc(Nc2ccccc2)nc2ccccc12`, the Potency was inconclusive: 20.6 µM [cytotoxic, single point].
For `CCOC(=O)c1c(-c2ccc(C)o2)csc1NC(=O)CN1CCCCC1`, the Potency was inconclusive: 20.6 µM [cytotoxic, partial curve, poor fit].
For `CCCC(c1nnnn1Cc1cccs1)N1CCN(c2nc3ccccc3s2)CC1` (configuration not stated), the Potency was inconclusive: 11.6 µM [cytotoxic, partial curve, poor fit].
For `CN(c1ccc(F)cc1)S(=O)(=O)c1ccc(Cl)c(C(=O)Nc2ccncc2)c1`, the Potency was inconclusive: 5.17 µM [cytotoxic, partial curve].
In the case of `Clc1ccccc1-c1nnc2sc(-c3ccc4c(c3)OCO4)nn12`, the Potency is reported as active: 8.2 µM.
For `Cc1ccccc1OCCn1cc(C(=O)C(=O)N2CCOCC2)c2ccccc21`, the Potency was inconclusive: 7.31 µM [cytotoxic, partial curve].
For `CCN1C(=O)[C@@H]2[C@H](C1=O)[C@@H]1C[C@H]3C(=O)N(CC)C(=O)[C@H]3[C@@H]3C1=C(C(=O)N1C(=O)OC(=NCC4CC4)[C@]31C)[C@@H]2C`, the Potency was inconclusive: 20.6 µM [rising, single point].
For `Cc1ccc(Cl)cc1N1CCN(C(=O)C2CCC(CNS(=O)(=O)c3cccs3)CC2)CC1` (configuration not stated), the Potency was active: 10.3 µM.
For `Cc1cccc(C)c1-n1c(C)nn(Cc2ccc([N+](=O)[O-])cc2)c1=O`, the Potency was inconclusive: 10.3 µM [cytotoxic, partial curve].
For `CCOC(=O)c1c(C)[nH]c(C)c1S(=O)(=O)N1CCC(C(=O)Nc2cc(C)ccn2)CC1`, the Potency was inconclusive: 20.6 µM [rising, single point].
For `S=C(NC12CC3CC(CC(C3)C1)C2)N1CCCC1`, the Potency was inconclusive: 29.1 µM [cytotoxic, single point].
In the case of `CSc1nc2nccc(/C=C\c3ccccc3)n2n1`, the Potency is reported as inconclusive: 20.6 µM [cytotoxic, single point].
In the case of `CCn1cc2nc(SCC(=O)Nc3ccc(C)cc3)n(Cc3ccc(C)cc3)c(=O)c2n1`, the Potency is reported as “inactive”.
With `Cc1ccc(S(=O)(=O)N2CCN(C(=O)CCOc3ccccc3C)CC2)cc1C` the Potency was inconclusive: 29.1 µM [cytotoxic, single point].
For `C=CCn1c(Cc2ccccc2)n[nH]c1=S`, the Potency was “inactive”.
For `Cc1nn(CC(=O)N2CCN(c3ccccc3)CC2)c(=O)c2ccccc12`, the Potency was inconclusive: 20.6 µM [cytotoxic, partial curve, poor fit].
In the case of `C=CCNC(=O)c1onc(CSc2cc(C)ccc2C)c1C(=O)O`, the Potency is reported as inconclusive: 29.1 µM [cytotoxic, single point].
With `Cc1cc(C)c(C(=O)c2cccs2)c(C)c1` the Potency was inconclusive: 29.1 µM [rising, single point].
In the case of `O=C(NCc1ccccc1)c1cccc(COc2ccccc2Cl)c1`, the Potency is reported as inconclusive: 16.4 µM [cytotoxic, single point].
In the case of `Cc1ccc(S(=O)(=O)/N=C(/Nc2ccc(F)cc2F)c2ccccc2)cc1`, the Potency is reported as “inactive”.
With `CC(=O)NN1C(=O)c2ccc3c4c(ccc(c24)C1=O)C(=O)N(NC(C)=O)C3=O` the Potency was “inactive”.
With `CSc1nc2n(n1)C(c1cccc(F)c1)C(C(=O)Nc1ccc(C)cc1C)=C(C)N2` (configuration not stated) the Potency was inconclusive: 20.6 µM [rising, partial curve, poor fit].
In the case of `Cc1noc2ncnc(N3CCN(c4ccc(F)cc4)CC3)c12`, the Potency is reported as inconclusive: 13 µM [cytotoxic, partial curve].
